In the supplement of paper PMC10849652:
The other results are listed elsewhere or left out.

The chains behind the UniProt entries cited, without tags or fusion partners. Where a name states a change or a piece, a line headed by the entry shows the natural chain unless it says otherwise.
UniProt Q04837: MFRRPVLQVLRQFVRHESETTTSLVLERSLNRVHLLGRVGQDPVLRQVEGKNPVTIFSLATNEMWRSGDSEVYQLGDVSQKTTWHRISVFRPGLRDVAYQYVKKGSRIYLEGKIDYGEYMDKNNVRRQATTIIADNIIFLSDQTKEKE
UniProt P43307: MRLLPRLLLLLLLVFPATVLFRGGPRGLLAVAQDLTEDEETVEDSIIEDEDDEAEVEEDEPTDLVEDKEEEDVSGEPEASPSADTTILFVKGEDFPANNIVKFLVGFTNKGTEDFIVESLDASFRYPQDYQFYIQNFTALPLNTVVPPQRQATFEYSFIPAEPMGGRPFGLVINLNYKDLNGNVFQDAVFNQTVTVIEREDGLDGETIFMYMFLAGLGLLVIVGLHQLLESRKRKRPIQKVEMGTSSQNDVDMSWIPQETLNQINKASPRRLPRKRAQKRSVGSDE
UniProt P16150: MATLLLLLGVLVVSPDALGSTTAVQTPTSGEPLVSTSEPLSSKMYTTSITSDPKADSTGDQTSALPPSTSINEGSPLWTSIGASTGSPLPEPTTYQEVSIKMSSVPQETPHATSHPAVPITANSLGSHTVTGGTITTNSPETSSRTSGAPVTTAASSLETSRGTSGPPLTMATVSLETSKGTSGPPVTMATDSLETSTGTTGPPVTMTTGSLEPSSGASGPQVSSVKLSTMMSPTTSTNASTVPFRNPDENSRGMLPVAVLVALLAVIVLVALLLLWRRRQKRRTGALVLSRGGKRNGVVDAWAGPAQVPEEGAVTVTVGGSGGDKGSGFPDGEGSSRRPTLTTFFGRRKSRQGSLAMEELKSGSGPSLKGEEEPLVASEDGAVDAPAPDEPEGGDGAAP
UniProt O15270: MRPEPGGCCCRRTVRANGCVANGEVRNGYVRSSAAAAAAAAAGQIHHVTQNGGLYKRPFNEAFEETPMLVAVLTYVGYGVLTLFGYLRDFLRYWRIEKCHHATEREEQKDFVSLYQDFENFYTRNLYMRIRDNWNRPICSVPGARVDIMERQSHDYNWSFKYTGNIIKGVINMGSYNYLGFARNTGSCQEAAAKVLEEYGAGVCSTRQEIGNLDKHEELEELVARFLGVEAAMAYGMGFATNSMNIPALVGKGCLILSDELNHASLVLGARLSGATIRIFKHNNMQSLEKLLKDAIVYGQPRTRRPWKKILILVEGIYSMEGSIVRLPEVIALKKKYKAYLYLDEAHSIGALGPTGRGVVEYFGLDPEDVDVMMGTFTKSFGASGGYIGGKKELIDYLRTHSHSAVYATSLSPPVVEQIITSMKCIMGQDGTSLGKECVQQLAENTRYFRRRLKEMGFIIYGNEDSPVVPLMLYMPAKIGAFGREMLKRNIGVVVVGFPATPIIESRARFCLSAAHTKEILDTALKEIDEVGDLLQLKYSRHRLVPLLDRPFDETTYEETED
UniProt P10124: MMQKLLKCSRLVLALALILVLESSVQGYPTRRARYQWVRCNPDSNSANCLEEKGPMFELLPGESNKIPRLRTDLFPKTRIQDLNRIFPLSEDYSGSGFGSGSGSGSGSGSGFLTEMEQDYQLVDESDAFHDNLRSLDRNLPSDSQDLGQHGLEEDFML
UniProt Q96SB4, whole entry, looked up: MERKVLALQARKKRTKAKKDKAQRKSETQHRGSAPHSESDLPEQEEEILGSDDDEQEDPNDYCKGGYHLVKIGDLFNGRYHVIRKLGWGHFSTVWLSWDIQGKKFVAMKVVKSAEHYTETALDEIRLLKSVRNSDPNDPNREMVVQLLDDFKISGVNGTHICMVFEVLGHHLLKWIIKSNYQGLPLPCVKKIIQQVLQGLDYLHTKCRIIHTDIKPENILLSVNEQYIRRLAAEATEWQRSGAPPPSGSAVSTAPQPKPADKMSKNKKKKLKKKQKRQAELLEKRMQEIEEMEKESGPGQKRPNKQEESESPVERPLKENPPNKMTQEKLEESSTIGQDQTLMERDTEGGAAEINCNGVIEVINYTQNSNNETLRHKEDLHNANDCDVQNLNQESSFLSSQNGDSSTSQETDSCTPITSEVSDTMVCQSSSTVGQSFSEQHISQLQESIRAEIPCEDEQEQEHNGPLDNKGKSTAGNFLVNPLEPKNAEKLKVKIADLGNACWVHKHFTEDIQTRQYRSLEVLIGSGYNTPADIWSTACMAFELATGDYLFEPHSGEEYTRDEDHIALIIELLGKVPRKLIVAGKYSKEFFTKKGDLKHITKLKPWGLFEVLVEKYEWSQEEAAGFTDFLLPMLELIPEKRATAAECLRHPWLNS
UniProt Q9UQ90: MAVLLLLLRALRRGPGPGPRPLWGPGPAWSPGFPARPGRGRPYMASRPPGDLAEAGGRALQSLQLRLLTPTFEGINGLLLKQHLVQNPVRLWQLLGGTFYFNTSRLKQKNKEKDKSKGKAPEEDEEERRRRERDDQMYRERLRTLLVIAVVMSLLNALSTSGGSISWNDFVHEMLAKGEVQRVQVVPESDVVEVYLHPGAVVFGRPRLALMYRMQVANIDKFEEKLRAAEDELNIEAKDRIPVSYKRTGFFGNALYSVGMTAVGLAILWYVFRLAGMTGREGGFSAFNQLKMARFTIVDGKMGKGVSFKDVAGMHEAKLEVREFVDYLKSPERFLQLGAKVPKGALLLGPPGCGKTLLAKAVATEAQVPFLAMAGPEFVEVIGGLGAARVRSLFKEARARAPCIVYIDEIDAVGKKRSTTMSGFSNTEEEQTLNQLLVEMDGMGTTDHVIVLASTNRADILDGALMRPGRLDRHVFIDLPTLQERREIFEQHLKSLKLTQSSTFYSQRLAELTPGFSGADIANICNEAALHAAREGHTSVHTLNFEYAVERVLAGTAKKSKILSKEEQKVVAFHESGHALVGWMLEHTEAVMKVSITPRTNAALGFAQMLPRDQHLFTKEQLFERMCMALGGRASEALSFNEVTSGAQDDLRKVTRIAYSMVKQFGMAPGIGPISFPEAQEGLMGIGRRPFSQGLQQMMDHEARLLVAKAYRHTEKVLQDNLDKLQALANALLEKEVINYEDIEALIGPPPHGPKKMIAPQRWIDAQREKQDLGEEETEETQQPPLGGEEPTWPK
UniProt Q9C004: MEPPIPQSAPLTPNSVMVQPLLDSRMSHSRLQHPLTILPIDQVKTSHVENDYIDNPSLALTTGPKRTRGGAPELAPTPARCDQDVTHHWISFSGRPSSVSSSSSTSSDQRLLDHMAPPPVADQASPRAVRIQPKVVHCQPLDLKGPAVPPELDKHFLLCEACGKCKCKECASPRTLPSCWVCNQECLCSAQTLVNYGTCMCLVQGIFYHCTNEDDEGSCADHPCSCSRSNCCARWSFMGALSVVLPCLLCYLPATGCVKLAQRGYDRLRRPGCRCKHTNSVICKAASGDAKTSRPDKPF
UniProt Q8NBT2: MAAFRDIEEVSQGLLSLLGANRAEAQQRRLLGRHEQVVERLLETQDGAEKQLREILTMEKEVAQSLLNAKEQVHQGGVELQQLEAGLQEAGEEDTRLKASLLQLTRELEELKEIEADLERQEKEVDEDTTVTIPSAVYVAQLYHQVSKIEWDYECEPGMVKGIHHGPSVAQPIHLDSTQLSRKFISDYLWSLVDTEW
UniProt O95793: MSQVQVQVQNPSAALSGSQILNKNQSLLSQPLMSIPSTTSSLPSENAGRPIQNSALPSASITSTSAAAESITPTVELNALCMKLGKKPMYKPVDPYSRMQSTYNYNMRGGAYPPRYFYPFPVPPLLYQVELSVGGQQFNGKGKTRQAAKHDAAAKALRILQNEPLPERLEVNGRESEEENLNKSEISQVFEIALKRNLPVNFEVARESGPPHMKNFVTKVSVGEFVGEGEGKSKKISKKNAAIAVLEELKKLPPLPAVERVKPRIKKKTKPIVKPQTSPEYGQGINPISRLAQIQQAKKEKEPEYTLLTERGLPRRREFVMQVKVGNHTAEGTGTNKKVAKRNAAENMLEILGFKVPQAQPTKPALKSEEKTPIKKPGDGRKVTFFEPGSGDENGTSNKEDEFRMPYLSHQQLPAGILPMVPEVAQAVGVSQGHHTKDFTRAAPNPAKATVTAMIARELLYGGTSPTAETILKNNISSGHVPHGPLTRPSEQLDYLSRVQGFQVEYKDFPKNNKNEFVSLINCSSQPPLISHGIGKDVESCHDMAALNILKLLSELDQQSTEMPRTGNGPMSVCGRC
UniProt Q8N3U4: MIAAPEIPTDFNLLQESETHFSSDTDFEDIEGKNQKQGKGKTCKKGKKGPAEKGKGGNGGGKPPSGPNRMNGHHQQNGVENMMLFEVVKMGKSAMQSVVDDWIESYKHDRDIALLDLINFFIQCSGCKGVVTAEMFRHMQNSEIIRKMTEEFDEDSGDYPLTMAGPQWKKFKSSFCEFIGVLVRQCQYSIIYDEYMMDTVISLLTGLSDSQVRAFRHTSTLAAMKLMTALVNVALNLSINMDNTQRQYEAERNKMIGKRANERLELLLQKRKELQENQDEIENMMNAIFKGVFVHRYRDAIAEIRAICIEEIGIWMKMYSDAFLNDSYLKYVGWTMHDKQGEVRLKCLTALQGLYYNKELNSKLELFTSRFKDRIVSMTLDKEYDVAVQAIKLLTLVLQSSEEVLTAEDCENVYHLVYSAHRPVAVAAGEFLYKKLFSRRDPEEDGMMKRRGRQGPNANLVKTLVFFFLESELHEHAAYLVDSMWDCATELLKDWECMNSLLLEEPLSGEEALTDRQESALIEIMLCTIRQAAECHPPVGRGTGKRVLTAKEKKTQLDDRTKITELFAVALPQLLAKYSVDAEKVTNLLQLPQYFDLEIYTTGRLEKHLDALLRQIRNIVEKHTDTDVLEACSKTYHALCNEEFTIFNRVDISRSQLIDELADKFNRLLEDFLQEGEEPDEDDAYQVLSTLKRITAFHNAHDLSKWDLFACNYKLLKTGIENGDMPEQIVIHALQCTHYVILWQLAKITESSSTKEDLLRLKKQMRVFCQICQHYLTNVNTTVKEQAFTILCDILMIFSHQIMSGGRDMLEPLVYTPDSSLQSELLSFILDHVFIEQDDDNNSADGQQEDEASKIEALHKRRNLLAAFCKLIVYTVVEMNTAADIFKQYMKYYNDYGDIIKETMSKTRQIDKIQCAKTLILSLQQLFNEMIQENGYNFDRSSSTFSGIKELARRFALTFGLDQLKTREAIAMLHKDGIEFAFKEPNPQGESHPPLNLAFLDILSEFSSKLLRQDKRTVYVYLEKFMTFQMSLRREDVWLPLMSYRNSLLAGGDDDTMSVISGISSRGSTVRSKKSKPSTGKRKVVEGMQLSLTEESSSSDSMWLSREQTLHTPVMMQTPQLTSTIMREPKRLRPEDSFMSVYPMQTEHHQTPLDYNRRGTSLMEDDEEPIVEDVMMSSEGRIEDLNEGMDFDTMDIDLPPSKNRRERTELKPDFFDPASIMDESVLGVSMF
UniProt Q92783: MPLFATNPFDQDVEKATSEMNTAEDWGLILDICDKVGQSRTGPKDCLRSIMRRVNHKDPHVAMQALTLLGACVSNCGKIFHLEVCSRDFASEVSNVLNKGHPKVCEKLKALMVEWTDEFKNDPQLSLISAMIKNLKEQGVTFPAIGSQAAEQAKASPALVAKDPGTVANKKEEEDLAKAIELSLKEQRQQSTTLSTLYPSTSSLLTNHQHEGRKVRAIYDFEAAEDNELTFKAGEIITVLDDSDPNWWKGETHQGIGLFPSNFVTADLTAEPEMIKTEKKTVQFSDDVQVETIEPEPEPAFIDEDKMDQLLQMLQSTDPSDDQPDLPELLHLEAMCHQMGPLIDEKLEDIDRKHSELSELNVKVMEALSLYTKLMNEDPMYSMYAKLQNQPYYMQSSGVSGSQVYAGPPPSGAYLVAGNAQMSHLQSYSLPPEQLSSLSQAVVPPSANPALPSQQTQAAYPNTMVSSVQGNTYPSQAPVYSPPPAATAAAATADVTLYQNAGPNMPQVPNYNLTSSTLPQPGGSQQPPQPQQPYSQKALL
UniProt O43805: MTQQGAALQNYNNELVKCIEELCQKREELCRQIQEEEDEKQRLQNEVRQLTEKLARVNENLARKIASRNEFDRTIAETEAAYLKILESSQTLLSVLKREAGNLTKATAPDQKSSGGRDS
UniProt Q9NRC1: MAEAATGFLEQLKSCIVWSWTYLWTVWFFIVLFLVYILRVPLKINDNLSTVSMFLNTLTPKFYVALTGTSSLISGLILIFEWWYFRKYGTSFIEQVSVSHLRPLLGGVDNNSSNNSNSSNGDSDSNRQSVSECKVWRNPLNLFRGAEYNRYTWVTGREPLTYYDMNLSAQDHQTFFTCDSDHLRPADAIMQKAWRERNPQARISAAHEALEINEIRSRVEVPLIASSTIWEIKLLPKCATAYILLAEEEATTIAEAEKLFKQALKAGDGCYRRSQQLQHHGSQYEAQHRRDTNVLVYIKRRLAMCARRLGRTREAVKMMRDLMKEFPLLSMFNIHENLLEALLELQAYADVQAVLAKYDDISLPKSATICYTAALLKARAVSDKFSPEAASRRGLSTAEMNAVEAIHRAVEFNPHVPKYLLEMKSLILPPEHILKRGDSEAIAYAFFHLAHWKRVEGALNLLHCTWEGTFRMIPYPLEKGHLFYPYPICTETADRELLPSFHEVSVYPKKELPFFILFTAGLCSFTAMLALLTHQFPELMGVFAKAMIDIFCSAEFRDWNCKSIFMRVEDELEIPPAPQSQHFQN

These targets were tested with C[C@H](C1=CC=C(C=C1)C(=O)NC2=C3C=CNC3=NC=C2)N (assay: log2 fold change, soluble protein after heating vs DMSO (PISA); higher = thermal stabilisation; K562 cells, 10 uM, 30 min; active = over 0.2 and 3.5 SD of the protein, either way, in both replicates (recomputed)).
Method in brief: (§1)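 Soluble protein was defined as the supernatant after 21,000xg for 90 min. It came from K562 cells at 2×10^6 cells/mL given 10 μM compound for 30 min, heated in aliquots for 3 min across 48°C-58°C, pooled, and extracted in PBS with 0.5% NP-40 at 4°C, and was quantified by TMTpro 16plex LC-MS/MS with equalised channel sums. Thermal stability against control samples, from duplicates, is reported as log2 fold change.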

log2 fold change, inactive:
SSBP1 (UniProt Q04837) 0.118
STAMBP (UniProt O95630) 0.033
SPC25 (UniProt Q9HBM1) -0.001
SRRM1 (UniProt Q8IYB3) 0.08
SSR1 (UniProt P43307) 0.009
SRRT (UniProt Q9BXP5) 0.004
STK11 (UniProt Q15831) -0.044
SPTA1 (UniProt P02549) 0.367
SPTAN1 isoform 2 (UniProt Q13813) 0.004
SRP9 (UniProt P49458) 0.345
SPN (UniProt P16150) -0.042
SPTLC2 (UniProt O15270) -0.066
SRGN (UniProt P10124) -0.227
SRPK1 (UniProt Q96SB4) 0.531
SPG7 (UniProt Q9UQ90) 0.049
SRP19 (UniProt P09132) 0.147
SPRY4 (UniProt Q9C004) -0.144
SPC24 (UniProt Q8NBT2) -0.09
STAU1 (UniProt O95793) 0.475
SRP14 (UniProt P37108) 0.366
SRSF5 (UniProt Q13243) -0.05
SRM (UniProt P19623) -0.05
STIP1 isoform 2 (UniProt P31948) -0.044
SPATA5 (UniProt Q8NB90) 0.023
STAG2 (UniProt Q8N3U4) -0.118
SQLE (UniProt Q14534) -0.009
SPARC (UniProt P09486) 0.072
SPTB isoform 2 (UniProt P11277) 0.179
STAM (UniProt Q92783) 0.103
SSNA1 (UniProt O43805) -0.03
SPNS1 (UniProt Q9H2V7) -0.05
SPCS3 (UniProt P61009) 0.008
SPRYD7 (UniProt Q5W111) -0.061
ST7 (UniProt Q9NRC1) 0.078
SPTBN2 (UniProt O15020) 0.071
SPIN1 (UniProt Q9Y657) 0.049
SPCS1, A0A5F9YFS9 -0.018
ST13 (UniProt P50502) -0.015

The targets below were run with C[C@H](Nc1ncnc2nc[nH]c12)c1cc2cccc(Cl)c2c(=O)n1-c1ccccc1 [duvelisib] in the same assay as above.
Method in brief: as §1

log2 fold change, inactive:
SSBP1 (UniProt Q04837) -0.024
STAMBP (UniProt O95630) 0.05
SPC25 (UniProt Q9HBM1) 0.059
SRRM1 (UniProt Q8IYB3) -0.104
SSR1 (UniProt P43307) 0.044
SRRT (UniProt Q9BXP5) 0.08
STK11 (UniProt Q15831) 0.112
SPTA1 (UniProt P02549) -0.065
SPTAN1 isoform 2 (UniProt Q13813) -0.015
SRP9 (UniProt P49458) -0.164
SPN (UniProt P16150) 0.048
SPTLC2 (UniProt O15270) 0.091
SRGN (UniProt P10124) 0.061
SRPK1 (UniProt Q96SB4) -0.313
SPG7 (UniProt Q9UQ90) 0.075
SRP19 (UniProt P09132) -0.007
SPRY4 (UniProt Q9C004) -0.008
SPC24 (UniProt Q8NBT2) 0.024
STAU1 (UniProt O95793) -0.213
SRP14 (UniProt P37108) -0.15
SRSF5 (UniProt Q13243) -0.15
SRM (UniProt P19623) -0.029
STIP1 isoform 2 (UniProt P31948) 0.009
SPATA5 (UniProt Q8NB90) -0.019
STAG2 (UniProt Q8N3U4) 0.051
SQLE (UniProt Q14534) 0.034
SPARC (UniProt P09486) -0.075
SPTB isoform 2 (UniProt P11277) -0.026
STAM (UniProt Q92783) -0.075
SSNA1 (UniProt O43805) 0.012
SPNS1 (UniProt Q9H2V7) 0.049
SPCS3 (UniProt P61009) -0.008
SPRYD7 (UniProt Q5W111) -0.005
ST7 (UniProt Q9NRC1) -0.051
SPTBN2 (UniProt O15020) -0.007
SPIN1 (UniProt Q9Y657) -0.01
SPCS1, A0A5F9YFS9 0.068
ST13 (UniProt P50502) -0.009
